Experimental data reported in paper PMC9968304.
No constants are given. Whether binding was seen depends on the method and setting. Some entries that bind do so weakly or less than the wild type.

Tests used:
Experiment in all cases: cryo-EM structure; single particle cryoEM, anaerobic grids; subset of particles of the MoFe^ΔNifV sample purified from A. vinelandii DJ605 with endogenous NafT bound; 50 mM Tris-HCl, 200 mM NaCl, 5 mM sodium dithionite, pH 7.8; 2.71 Å
[1] = molecular target: T1, MoFe^ΔNifV (homocitrate-deficient MoFe-protein purified from the homocitrate synthase (nifV) deletion strain of A. vinelandii) (Azotobacter vinelandii) (UniProt P07328+P07329)
T1 sequence 1: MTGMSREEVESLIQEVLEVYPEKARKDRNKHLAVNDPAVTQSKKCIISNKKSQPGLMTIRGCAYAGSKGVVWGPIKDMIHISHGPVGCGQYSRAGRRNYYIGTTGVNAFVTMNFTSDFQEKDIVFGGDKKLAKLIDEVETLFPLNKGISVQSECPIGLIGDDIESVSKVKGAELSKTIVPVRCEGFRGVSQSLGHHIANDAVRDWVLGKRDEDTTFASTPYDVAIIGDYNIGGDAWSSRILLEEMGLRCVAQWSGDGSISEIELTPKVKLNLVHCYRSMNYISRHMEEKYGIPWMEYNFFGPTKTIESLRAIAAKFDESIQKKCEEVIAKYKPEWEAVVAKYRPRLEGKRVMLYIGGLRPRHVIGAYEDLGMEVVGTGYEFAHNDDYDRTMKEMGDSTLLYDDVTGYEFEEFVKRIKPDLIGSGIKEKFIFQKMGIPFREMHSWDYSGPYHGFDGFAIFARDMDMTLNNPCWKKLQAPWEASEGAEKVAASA
T1 sequence 2: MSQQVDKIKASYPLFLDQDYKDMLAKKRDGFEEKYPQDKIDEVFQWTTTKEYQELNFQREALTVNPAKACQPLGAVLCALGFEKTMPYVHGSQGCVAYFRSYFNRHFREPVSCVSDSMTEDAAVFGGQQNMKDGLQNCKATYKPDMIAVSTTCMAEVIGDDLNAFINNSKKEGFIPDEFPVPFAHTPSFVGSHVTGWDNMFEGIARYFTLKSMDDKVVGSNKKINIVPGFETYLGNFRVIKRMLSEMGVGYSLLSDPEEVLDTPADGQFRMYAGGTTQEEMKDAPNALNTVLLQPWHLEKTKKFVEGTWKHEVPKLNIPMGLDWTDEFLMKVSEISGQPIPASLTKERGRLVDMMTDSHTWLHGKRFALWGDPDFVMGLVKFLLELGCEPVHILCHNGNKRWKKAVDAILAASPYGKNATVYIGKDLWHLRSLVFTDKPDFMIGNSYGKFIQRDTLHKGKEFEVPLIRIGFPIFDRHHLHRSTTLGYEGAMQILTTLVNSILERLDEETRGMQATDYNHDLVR

[2] = molecular target: T2, MoFe-protein α-subunit (NifD) (Azotobacter vinelandii) (UniProt P07328)
T2 sequence: T1 sequence 1

[3] = molecular target: T3, MoFe-protein β-subunit (NifK) (Azotobacter vinelandii) (UniProt P07329)
T3 sequence: T1 sequence 2

Measured: binding

B1: NafT (nitrogenase-associated factor protein T), product of the Avin_01560 gene (protein, UniProt C1DH13 1-135)
chain: MSWRILLCHKHPVSARLRFLIPTGGGVVLPQTLPRLAVIAEDQEAPVQCHPASALRALQETMALGWQLELIGEFRLNMEVPGQIMPIYLAALAGHELPPPPEGTRWIELTQSIGMPWLDRELLRRVYEELIGFGC
binds: [1] | [2] | [3]
